{"source": "PubChem BioAssay AID1259280 | Sanger Institute | 2017", "purpose": "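Essential kinases and drug-combination synergies in SNU407 cells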 (primary screen)", "cells": "human SNU407 colorectal cancer cells", "knock-down reagent": "siRNA pool against human genes", "conditions": "anchor drugs BYL719 at 1 µM, cetuximab at 5 µg/ml or trametinib at 10 nM, or DMSO vehicle alone; exposure time not given", "measurement": "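Viability per well scaled to a non-targeting pool and averaged over replicates, with a robust z-score from controls and a synergy score per anchor drug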", "reading the numbers": "viability z-score, no drug: higher = more cells survive the knock-down", "active means": "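Essential calls require a no-drug robust viability z-score under -3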", "meaning of the calls": "active = essential (knock-down alone kills cells); inactive = no change without drug", "note": "This is a random part of 794 reagents tested. Over the whole deposit, 12 (1.5%) were called active. 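Calls cover knock-down without drug only; synergy scores stand apart, values above 0.15 being treated as synergy.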 Entries without a mark were called inactive. Not all columns of the deposit are shown. Not given: the amount of reagent, the time to read-out."}
{"gene":"CHUK","viability z-score, no drug":0.901}
{"gene":"BRAF (B-Raf proto-oncogene, serine/threonine kinase)","viability z-score, no drug":-1.87}
{"gene":"JAK2 (Janus kinase 2)","viability z-score, no drug":-0.32}
{"gene":"RPS6KA1 (ribosomal protein S6 kinase A1)","viability z-score, no drug":0.901}
{"gene":"CSNK1D (casein kinase 1 delta)","viability z-score, no drug":0.252}
{"gene":"ACO1 (aconitase 1)","viability z-score, no drug":-0.722}
{"gene":"TBX3 (T-box transcription factor 3)","viability z-score, no drug":0.901}
{"gene":"TP53RK (TP53 regulating kinase)","viability z-score, no drug":0.901}
{"gene":"IRAK3 (interleukin 1 receptor associated kinase 3)","viability z-score, no drug":-2.49}
{"gene":"PRKCQ (protein kinase C theta)","viability z-score, no drug":0.901}
{"gene":"FES (FES proto-oncogene, tyrosine kinase)","viability z-score, no drug":-1.13}
{"gene":"SMG1","viability z-score, no drug":-0.197}
{"gene":"CSK (C-terminal Src kinase)","viability z-score, no drug":-0.655}
{"gene":"PRPS1L1 (phosphoribosyl pyrophosphate synthetase 1 like 1)","viability z-score, no drug":0.901}
{"gene":"PAK5 (p21 (RAC1) activated kinase 5)","viability z-score, no drug":-0.783}
{"gene":"UCK1 (uridine-cytidine kinase 1)","viability z-score, no drug":-0.434}
{"gene":"MAP3K3 (mitogen-activated protein kinase kinase kinase 3)","viability z-score, no drug":0.901}
{"gene":"CSNK1G2 (casein kinase 1 gamma 2)","viability z-score, no drug":0.558}
{"gene":"CLK2 (CDC like kinase 2)","viability z-score, no drug":0.901}

A portion taken from the entries so far, for reference:
{"gene":"IRAK3 (interleukin 1 receptor associated kinase 3)","viability z-score, no drug":-2.49}
{"gene":"PRKCQ (protein kinase C theta)","viability z-score, no drug":0.901}
{"gene":"FES (FES proto-oncogene, tyrosine kinase)","viability z-score, no drug":-1.13}
{"gene":"SMG1","viability z-score, no drug":-0.197}

Further results follow:
{"gene":"STK25 (serine/threonine kinase 25)","viability z-score, no drug":0.0757}
{"gene":"NEK8 (NIMA related kinase 8)","viability z-score, no drug":-0.902}
{"gene":"PNKP (polynucleotide kinase 3'-phosphatase)","viability z-score, no drug":-0.299}
{"gene":"TSSK6 (testis specific serine kinase 6)","viability z-score, no drug":0.723}
{"gene":"FGR (FGR proto-oncogene, Src family tyrosine kinase)","viability z-score, no drug":0.562}
{"gene":"PRKX (protein kinase cAMP-dependent X-linked catalytic subunit)","viability z-score, no drug":0.901}
{"gene":"DAPK2 (death associated protein kinase 2)","viability z-score, no drug":0.901}
{"gene":"IRAK2 (interleukin 1 receptor associated kinase 2)","viability z-score, no drug":0.901}
{"gene":"PDK2 (pyruvate dehydrogenase kinase 2)","viability z-score, no drug":0.746}
{"gene":"GRK7 (G protein-coupled receptor kinase 7)","viability z-score, no drug":-1.64}
{"gene":"PXK (PX domain containing serine/threonine kinase like)","viability z-score, no drug":0.75}
{"gene":"CDK8 (cyclin dependent kinase 8)","viability z-score, no drug":0.901}
{"gene":"STRADA (STE20 related adaptor alpha)","viability z-score, no drug":-0.386}
{"gene":"PIP5K1C (phosphatidylinositol-4-phosphate 5-kinase type 1 gamma)","viability z-score, no drug":0.364}
{"gene":"STK38 (serine/threonine kinase 38)","viability z-score, no drug":-0.357}
{"gene":"GUCY2C (guanylate cyclase 2C)","viability z-score, no drug":0.714}
{"gene":"DAPK1 (death associated protein kinase 1)","viability z-score, no drug":0.901}
